Results are given in words; binding and its absence hold for the method and conditions named. In cells and extracts the contact can be indirect.

Sequences of proteins named here, by UniProt entry; tags and fusion partners are left off.
UniProt O09106: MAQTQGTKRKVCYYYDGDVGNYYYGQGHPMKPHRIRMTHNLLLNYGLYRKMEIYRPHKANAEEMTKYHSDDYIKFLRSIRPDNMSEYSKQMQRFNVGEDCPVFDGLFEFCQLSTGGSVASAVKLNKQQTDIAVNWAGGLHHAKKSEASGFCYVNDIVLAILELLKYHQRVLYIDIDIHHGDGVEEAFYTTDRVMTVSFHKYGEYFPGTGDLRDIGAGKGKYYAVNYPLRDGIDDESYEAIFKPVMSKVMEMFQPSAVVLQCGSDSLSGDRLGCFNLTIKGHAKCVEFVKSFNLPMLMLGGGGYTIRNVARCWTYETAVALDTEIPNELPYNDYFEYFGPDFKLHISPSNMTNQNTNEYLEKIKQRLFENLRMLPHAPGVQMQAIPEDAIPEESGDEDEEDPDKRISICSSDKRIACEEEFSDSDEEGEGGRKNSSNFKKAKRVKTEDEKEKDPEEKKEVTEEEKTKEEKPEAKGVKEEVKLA
UniProt P70288: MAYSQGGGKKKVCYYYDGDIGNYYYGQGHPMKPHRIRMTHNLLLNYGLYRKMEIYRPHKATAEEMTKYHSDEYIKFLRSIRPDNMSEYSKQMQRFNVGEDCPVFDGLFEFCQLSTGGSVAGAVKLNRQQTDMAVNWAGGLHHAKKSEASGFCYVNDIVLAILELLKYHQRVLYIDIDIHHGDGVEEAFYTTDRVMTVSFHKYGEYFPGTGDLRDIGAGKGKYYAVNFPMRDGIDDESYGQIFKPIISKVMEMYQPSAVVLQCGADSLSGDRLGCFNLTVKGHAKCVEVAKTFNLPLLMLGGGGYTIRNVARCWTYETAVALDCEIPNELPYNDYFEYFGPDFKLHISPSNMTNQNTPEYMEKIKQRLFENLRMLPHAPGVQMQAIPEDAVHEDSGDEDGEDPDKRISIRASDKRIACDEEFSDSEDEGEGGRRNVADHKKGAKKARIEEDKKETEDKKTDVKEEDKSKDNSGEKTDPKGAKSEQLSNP

The results in this text go back to article PMC6176997.

The test concerns the target T1, Tbx1:3xHA (UniProt P70323).
T1 sequence: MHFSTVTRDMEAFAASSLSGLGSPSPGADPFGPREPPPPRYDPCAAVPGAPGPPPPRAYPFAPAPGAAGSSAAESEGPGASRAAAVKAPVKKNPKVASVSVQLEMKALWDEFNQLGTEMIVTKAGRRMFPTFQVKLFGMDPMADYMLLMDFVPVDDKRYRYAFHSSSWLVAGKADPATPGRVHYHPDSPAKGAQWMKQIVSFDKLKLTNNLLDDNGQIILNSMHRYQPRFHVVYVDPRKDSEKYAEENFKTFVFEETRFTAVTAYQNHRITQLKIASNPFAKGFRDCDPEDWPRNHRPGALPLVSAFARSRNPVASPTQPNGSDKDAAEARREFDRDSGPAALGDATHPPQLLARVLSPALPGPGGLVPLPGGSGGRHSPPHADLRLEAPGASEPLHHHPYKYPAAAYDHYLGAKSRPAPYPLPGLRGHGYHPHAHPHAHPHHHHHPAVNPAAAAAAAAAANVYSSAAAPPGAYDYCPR
Briefly: co-IP; nuclear extracts of C2C12 cells transfected with Tbx1:3xHA, incubated overnight at 4°C with anti-HA antibodies (or control IgG) crosslinked to protein-G Dynabeads; washed with PBS-0.02% Tween 20; eluted with 0.1 M glycine pH 2.8; western blot with anti-HDAC1, anti-HDAC2 and anti-HA. Background: In western blotting, separated proteins are transferred to a membrane and probed.

For HDAC1 (from UniProt O09106 1-482), the binding result was “no binding”.
For HDAC2 (from UniProt P70288 1-488) the value was “no binding”.
